A short description of the assay: qHTS Assay for Lipid Storage Modulators in Drosophila S3 Cells.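 On cell number change: cells counted by Cell Tracker Red CMTPX staining in the red channel.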 Conditions: BODIPY lipid droplet fluorescence, 18-24 h; for cell number change: measured here: cell count max response, cells fed with added oleic acid. In outline:
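Drosophila S3 cells got compounds at several concentrations plus oleic acid (400 uM solution). Laser-scanning cytometry with 488 nm excitation read lipid droplets at 500-530 nm and cells at 575-640 nm. Percent activity was relative to 20 uM Triacsin C.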
In general terms: Quantitative high-throughput screening tests each substance at several concentrations.

Setting [1] is: measured here: cell number channel AC50, cells fed with added oleic acid.
Setting [2] is: measured here: lipid fluorescence (Fed channel) AC50, cells fed with added oleic acid.

The list shows a part of the results. Shown are side measurements of this screen, not its main read-out; they come without a call. Most of these compounds were active or inconclusive in the main read-out, so they are no random draw. Potencies come from curve fits of mixed quality, noted in brackets.

In general, AC50 refers to the concentration giving half of the maximal activity seen. A low value points to activity at low concentration.

As to `NC(=O)c1cc(C(=O)c2ccc(Cl)cc2)c[nH]1`, the cell number change is -44%. Further, the AC50 under setting [1] is 1.3 µM [falling, full curve]. In addition, the AC50 under setting [2] was 1.03 µM [falling, full curve].
Regarding `COc1cc(CNCCc2ccccc2F)ccc1OCc1ccc(Cl)nc1`, the cell number change was determined as 112%. Further, the AC50 under setting [2] was 6.51 µM [falling, single point].
For `O=C1CSC(=Nc2cccc([N+](=O)[O-])c2)N1`, the cell number change was -20.8%. Besides, under setting [2], the AC50 was 6.51 µM [falling, partial curve].
For `CCOC(=O)Cn1nnnc1CN(Cc1ccc(OC)cc1)Cc1cc2cc(CC)ccc2[nH]c1=O`, the cell number change was 21.7%. Moreover, under setting [2], the AC50 was 0.164 µM [rising, full curve, poor fit].
With `O=C(N/N=C/c1ccc(O)cc1)c1ccc(COc2cc(Cl)ccc2Cl)o1`, the cell number change is -18%. Further, the AC50 under setting [2] is 29.1 µM [falling, single point].
On to `Cc1ncoc1C(=O)Nc1ccc2c(c1)OCCO2`, for which the cell number change is -11.3%. Further, the AC50 under setting [2] is 0.326 µM [rising, single point].
In the case of `Cc1c(NC(=S)NC(=O)c2ccccc2Br)c(=O)n(-c2ccccc2)n1C`, the cell number change is -8.33%.
Same read-out and setting: with `CC(=O)C1=C(O)C(=O)N(Cc2cccnc2)C1c1ccc(O)cc1` (stereo not drawn) the figure was 23.8%.
On to `CCCN1CCc2c(sc3nc(SCC)n(-c4ccccc4)c(=O)c23)C1`, for which the cell number change stood at 33.3%. In addition, the AC50 under setting [2] is 29.1 µM [falling, single point].
Regarding `Nc1cc(S(=O)(=O)C(F)(F)F)ccc1C(=O)O`, the cell number change is 3.03%. The AC50 under setting [2] was 1.84 µM [rising, partial curve].
On to `O=C(N/N=C/c1ccc(-c2cccc(C(F)(F)F)c2)o1)c1ccccc1O`, for which the cell number change was -11.7%. Moreover, the AC50 under setting [2] is 7.31 µM [falling, single point].
`CCOC(=O)c1cnc2ccc(OCC)cc2c1N1CCN(c2ccccc2OC)CC1`: the cell number change was found to be 79.8%. Moreover, under setting [1], the concentration at half-maximal activity (AC50) is 2.06 µM [rising, full curve, poor fit]. Further, the half-maximal activity concentration (AC50) under setting [2] is 10.3 µM [rising, partial curve].
In the case of `N=c1n(CCN2CCCCC2)c2ccccc2n1CC(O)c1cccc(Br)c1` (stereo not drawn), the cell number change is -36.5%. Under setting [1], the half-maximal activity concentration (AC50) is 23.1 µM [falling, single point]. Also, under setting [2], the AC50 was 29.1 µM [rising, partial curve].
In the case of `Cc1c(Cl)cccc1NC(=S)N1CCc2ccccc2C1`, the cell number change turned out to be 1.23%.
With `CCSc1nnc(-c2cc(Br)ccc2NC(C)=O)c(=O)[nH]1`, the cell number change is -4.63%. The AC50 under setting [1] was 6.51 µM [rising, single point].
In the case of `C/C(=C\C(=O)O)CC(=O)O`, the cell number change was -68.2%. Besides, the AC50 under setting [1] was 20.6 µM [falling, single point]. Moreover, under setting [2], the AC50 is 29.1 µM [falling, single point].
As to `COc1ccc(/C=N/Nc2nnc(Cc3ccc(OC)c(OC)c3)c(=O)[nH]2)cc1`, the cell number change is 18.2%. Besides, the AC50 under setting [2] is 0.366 µM [rising, partial curve].
As to `CC1(C)CSC(=NCCc2ccccc2)N1C(=O)c1ccc(C#N)cc1`, the AC50 under setting [2] is 2.06 µM [falling, partial curve].
Turning to `c1ccc(C2CN3CCSC3=N2)cc1` (stereo not drawn), the cell number change is -20.6%. Moreover, the AC50 under setting [2] was 29.1 µM [falling, partial curve, poor fit].
Take `CCOC(=O)C1=C(C)NC(=S)NC1c1cccs1` (stereo not drawn): the cell number change came to 17.2%. Moreover, the AC50 under setting [2] is 0.461 µM [falling, full curve].
As to `Cc1ccc(S(=O)(=O)NN/C(=N/S(=O)(=O)c2ccccc2)c2ccccc2)cc1`, the AC50 under setting [2] is 0.517 µM [falling, partial curve].
As for `O=C(CSC1=Nc2ccccc2C2CC=NN12)Nc1ccc2c(c1)OCO2` (stereo not drawn), the cell number change was found to be 57.9%. Under setting [2], the AC50 was 2.59 µM [rising, full curve].
As for `CC(C)(Oc1ccc(Cl)cc1)C(=O)NCC(c1ccco1)N1CCCCC1` (stereo not drawn), the cell number change is -14.1%.
Still for that read-out and setting: with `N#CC1=C(Nc2ccccc2)SC=C(c2ccc(Br)cc2)N=C1N1CCOCC1` the figure was -6%.
For `O=C(CCCCn1c(=O)[nH]c2ccsc2c1=O)NCCc1ccccc1`, the cell number change is -13.4%. Also, under setting [2], the AC50 was 2.06 µM [falling, full curve, poor fit].
As to `O=C(O)CCC(=O)N1CCC(C(=O)c2cccc(Cl)c2)CC1`, the cell number change is -5.69%.
As to `Cc1cc(C(=O)OCC(=O)c2ccc3c(c2)NC(=O)CO3)c2ccccc2n1`, the cell number change amounted to 39.7%. The AC50 under setting [1] is 20.6 µM [rising, partial curve, poor fit].
Regarding `COc1c(C)cc(S(=O)(=O)NCc2ccccn2)c(C)c1C`, the cell number change turned out to be 20.1%. Further, the AC50 under setting [2] is 29.1 µM [rising, single point].
Turning to `c1ccc(CNc2ncnc3nc[nH]c23)nc1`, under setting [1], the AC50 was 1.84 µM [rising, partial curve].
Take `COc1ccccc1NC(=O)CSC1CC(=O)N(c2ccc3c(c2)OCO3)C1=O` (stereo not drawn): the cell number change was -2.89%. Under setting [1], the AC50 is 1.3 µM [rising, partial curve]. Moreover, under setting [2], the AC50 was 29.1 µM [rising, single point].
Turning to `COc1ccc(-c2nnn(Cc3nc(N)nc(N4CCCCC4)n3)n2)cc1`, the AC50 under setting [2] was 6.51 µM [rising, partial curve, poor fit].
Turning to `Cc1ccn2c(C(=O)N/N=C/c3ccc(CNC(=O)C(=O)Nc4ccc(C)c(C)c4)o3)c(C)nc2c1`, the cell number change came to 15.6%. In addition, under setting [1], the AC50 is 3.26 µM [rising, partial curve]. Besides, the AC50 under setting [2] is 1.46 µM [rising, full curve, poor fit].
Turning to `CCCC(=O)N(CCN(Cc1ccccc1)C(=O)CCC)Cc1ccccc1`, the cell number change turned out to be 6.5%. The AC50 under setting [2] is 0.103 µM [falling, full curve, poor fit].
As to `C=C(C)c1cccc(C(C)(C)NC(=O)NCc2ccncc2)c1`, the cell number change is -21.9%. Also, the concentration at half-maximal activity (AC50) under setting [2] was 14.6 µM [falling, partial curve, poor fit].
In the case of `O=C1/C(=C2/NCCN2C2CC(=O)N(c3ccccc3)C2=O)CC/C1=C\c1ccccc1` (stereo not drawn), the cell number change was -18.8%. Also, under setting [2], the AC50 is 0.92 µM [falling, full curve, poor fit].
Turning to `CN(C)S(=O)(=O)N(CC(=O)Nc1ccc(S(=O)(=O)N2CCCC2)cc1)c1ccccc1`, the cell number change was -54.4%. Besides, the AC50 under setting [1] was 25.9 µM [falling, partial curve]. Further, under setting [2], the AC50 is 0.58 µM [falling, single point].
For the compound `CCOc1ccc(CCNC(=O)c2ccc3ccccc3n2)cc1OCC`, the AC50 under setting [2] is 29.1 µM [falling, single point].
`Cc1cccc(OCc2n[nH]c(=S)n2C2CCCCC2)c1`: the cell number change is -34.4%. Further, the AC50 under setting [1] was 20.6 µM [falling, single point]. The AC50 under setting [2] was 18.4 µM [falling, single point].

For the origin of these results see PubChem BioAssay AID2685 (National Center for Advancing Translational Sciences (NCATS), 2010).
